Data source: PubChem BioAssay AID1224828 (NIAID, 2016)
This is a random part of about 17,000 reagents tested. 762 of them (4.5%) count as active. 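Active calls include both raised and lowered p65 entry, mostly lowered; wells with fewer than 50 cells lack a z-score.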 Raw values are not corrected between plates. Entries without a mark were called inactive. Some reagents were tested in more than one well and are listed for each.

Assay: 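Knock-downs that increase or decrease LPS-induced p65 nuclear translocation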 (primary screen)
Cells: mouse RAW264.7 G9 macrophage reporter cells (GFP-p65, Tnf promoter-mCherry)
Reagents: siRNA pool against mouse genes, 100 nM
Duration: 2 days siRNA transfection, then 40 min LPS before fixation
Treatment: LPS (Salmonella minnesota R595) at 10 ng/ml
Measured: 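Imaged p65 nuclear translocation ratio, normalised to the plate median, converted to robust z-scores and averaged across two replicates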
Reading the numbers: p65 translocation robust z-score: higher = more nuclear NF-kappaB p65 after LPS than the plate median; nuclear/cytoplasmic p65 ratio: higher = more nuclear NF-kappaB p65
Call rule: 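Called active when z exceeds 3.3 or falls under -1.56 (median of Tlr4 controls), giving activity score of at least 50; no calls for control wells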
Calls: active = hit (p65 shift raised or lowered); inactive = no clear change

Target gene | PubChem SID | p65 translocation robust z-score | nuclear/cytoplasmic p65 ratio, rep 1 | nuclear/cytoplasmic p65 ratio, rep 2 | low cell count flag
Ackr5 (GeneID 11536) | SID315465313 | 1.36 | 1.66 | 1.82 | enough cells to score
Sphkap (GeneID 77629) | SID315475491 | – | 1.21 | 1.24 | fewer than 50 cells per well; well left out of scoring
Obscn (GeneID 380698) | SID315481751 | 1.8 | 1.92 | 1.66 | enough cells to score
Pramel48 (GeneID 320549) | SID315481336 | 1.59 | 1.78 | 1.79 | enough cells to score
Rabl3 (GeneID 67657) | SID315473149 | -0.03 | 1.38 | 1.21 | enough cells to score
Gnl3l (GeneID 237107) | SID315479328 | -0.78 | 1.44 | 1.74 | enough cells to score
Ppm1l (GeneID 242083) | SID315479593 | -2.19 (active) | 1.2 | 1.12 | enough cells to score
Or2ag2b (GeneID 66786) | SID315472638 | – | 1.35 | 1.17 | fewer than 50 cells per well; well left out of scoring
Tifab (GeneID 212937) | SID315477767 | 0.66 | 1.79 | 1.83 | enough cells to score
Pla1a (GeneID 85031) | SID315475906 | 0.32 | 1.49 | 1.19 | enough cells to score
Mapkapk3 (GeneID 102626) | SID315476341 | 1.94 | 1.79 | 1.63 | enough cells to score
Tcea3 (GeneID 21401) | SID315469605 | 0.14 | 1.56 | 1.52 | enough cells to score
Npc1 (GeneID 18145) | SID315468221 | – | 1.27 | 1.26 | fewer than 50 cells per well; well left out of scoring
Grk2 (GeneID 110355) | SID315476899 | 0.76 | 1.87 | 1.43 | enough cells to score
Grk2 (GeneID 110355) | SID315476899 | -0.33 | 1.47 | 1.52 | enough cells to score
Il23r (GeneID 209590) | SID315477607 | 0.64 | 1.65 | 1.38 | enough cells to score
Etfa (GeneID 110842) | SID315476939 | 0.44 | 1.54 | 1.41 | enough cells to score
Ramp3 (GeneID 56089) | SID315471370 | 1.97 | 2.11 | 1.49 | enough cells to score
Or4a74 (GeneID 258968) | SID315480582 | 0.61 | 1.63 | 1.56 | enough cells to score
Rpl35a (GeneID 57808) | SID315471828 | – | 1.54 | 1.22 | fewer than 50 cells per well; well left out of scoring
Itgb7 (GeneID 16421) | SID315467523 | 0.73 | 1.62 | 1.43 | enough cells to score
Flot1 (GeneID 14251) | SID315466717 | -1.46 | 1.31 | 1.33 | enough cells to score
Cdyl (GeneID 12593) | SID315465927 | 1.15 | 1.58 | 1.57 | enough cells to score
Rplp0 (GeneID 11837) | SID315465489 | -0.78 | 1.4 | 1.47 | enough cells to score
Slc34a1 (GeneID 20505) | SID315469281 | – | 0 | 2.25 | fewer than 50 cells per well; well left out of scoring
Apol10b (GeneID 328561) | SID315481487 | – | 1.21 | 1.19 | fewer than 50 cells per well; well left out of scoring
Fam234b (GeneID 74525) | SID315474998 | -0.8 | 1.45 | 1.41 | enough cells to score
Atp6v1a (GeneID 11964) | SID315465561 | 0.95 | 1.72 | 1.66 | enough cells to score
Or4b1d (GeneID 18331) | SID315468310 | – | 1.99 | 1.36 | fewer than 50 cells per well; well left out of scoring
Cma1 (GeneID 17228) | SID315467871 | – | 1.51 | 1.26 | fewer than 50 cells per well; well left out of scoring
Afap1l1 (GeneID 106877) | SID315476568 | -0.88 | 1.41 | 1.62 | enough cells to score
Crispld2 (GeneID 78892) | SID315475640 | 1.01 | 1.51 | 1.41 | enough cells to score
Traf5 (GeneID 22033) | SID315469819 | -0.44 | 1.45 | 1.44 | enough cells to score
Rpa2 (GeneID 19891) | SID315469003 | 0.1 | 1.54 | 1.14 | enough cells to score
C3ar1 (GeneID 12267) | SID315465698 | -1.85 (active) | 1.29 | 1.27 | enough cells to score
Cyp4b1 (GeneID 13120) | SID315466249 | 0.79 | 1.67 | 1.93 | enough cells to score
Pcdhgc4 (GeneID 93707) | SID315475939 | -1.83 (active) | 1.17 | 1.05 | enough cells to score
Aldh1a7 (GeneID 26358) | SID315470344 | 0.5 | 1.53 | 1.92 | enough cells to score
Lce3b (GeneID 66344) | SID315472376 | – | 1.08 | 2.98 | fewer than 50 cells per well; well left out of scoring
4932414J04Rik (GeneID 237694) | SID315479358 | – | 1.27 | 1.6 | fewer than 50 cells per well; well left out of scoring

2 of these entries in another layout.
Target gene,PubChem SID,p65 translocation robust z-score,"nuclear/cytoplasmic p65 ratio, rep 1","nuclear/cytoplasmic p65 ratio, rep 2",low cell count flag
Itgb7 (GeneID 16421),SID315467523,0.73,1.62,1.43,enough cells to score
Flot1 (GeneID 14251),SID315466717,-1.46,1.31,1.33,enough cells to score
